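Vaccinia-infected cells with a two-color viral stage reporter; Venus fluorescence read on a plate reader; the cell line is not named here; timing not stated here. The test concentration is not given here. Percent change in Venus reporter signal; lower (more negative) values mean stronger inhibition of that viral stage.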

Values are in %. The controls that fix the scale are not given here. Common to all entries: measured here: Venus reporter, other viral stage. Part of the compounds only, not a random draw; the main read-out is not listed here.

Compound | activity change (Venus) (%)
O=C(C[C@@H]1CC[C@@H]2[C@H](COC[C@H](O)CN2Cc2cccc(C(F)(F)F)c2)O1)NCCc1ccccc1 | -34.32
O=S(=O)(c1ccccc1)N1C[C@@H]2N[C@H](C1)C2c1ccc(-c2cccnc2)cc1 (stereo partly specified) | -64.53
C[C@H]1CN([C@@H](C)CO)C(=O)c2cccc(NS(=O)(=O)c3ccc(F)cc3)c2O[C@H]1CN(C)Cc1ccc(Cl)c(Cl)c1 | -25.76
O=C(Nc1cccc(F)c1)N1CC(=O)N2[C@@H](CO)[C@@H](c3ccc(-c4cccc(F)c4)cc3)[C@@H]2C1 | -30.66
COCC#Cc1ccc2c(c1)O[C@@H](CN(C)Cc1ccc3c(c1)OCO3)[C@H](C)CN([C@@H](C)CO)S2(=O)=O | -59.73
CC(=O)N(C)C[C@@H]1Oc2cc(C#CCC3CCCC3)ccc2S(=O)(=O)N([C@H](C)CO)C[C@H]1C | -45.05
C[C@@H]1CCCCO[C@@H](CN(C)Cc2ccccc2)[C@H](C)CN([C@@H](C)CO)C(=O)c2cc(NC(=O)Nc3cccc4ccccc34)ccc2O1 | -32.5
C[C@@H]1CN([C@@H](C)CO)C(=O)c2c(c3ccccc3n2C)-c2ccccc2CO[C@@H]1CN(C)C(=O)c1cc(Cl)cc(Cl)c1 | -51.68
COc1ccc(C#Cc2ccc([C@H]3[C@H](CO)N4CCCCN(C(=O)Cc5cccnc5)C[C@@H]34)cc2)cc1 | -60.52
COc1ccc(-c2ccc3c(c2)[C@H]2[C@H](CCN2S(=O)(=O)c2ccc(F)cc2)[C@H](CO)N3C)cc1 | -64.91
C[C@@H]1CN([C@H](C)CO)C(=O)c2c(c3ccccc3n2C)-c2ccccc2CO[C@@H]1CN(C)S(=O)(=O)c1ccc(Cl)cc1 | -24.64
CCC(=O)N1CC[C@H]2[C@H](CO)Nc3ccc(-c4ccccc4)cc3[C@H]21 | -37.07
C[C@H](CO)N1C[C@H](C)[C@H](CN(C)S(=O)(=O)c2ccc(C#N)cc2)OCc2ccccc2-c2c(n(C)c3ccccc23)C1=O | -46.76
Cc1ccccc1-c1ccc([C@@H]2[C@@H](CO)N3CCCCN(C(=O)Nc4ccc(F)cc4)C[C@H]23)cc1 | -42.58
C[C@@H]1CN([C@@H](C)CO)C(=O)c2cc(NC(=O)Nc3ccc(F)cc3)ccc2O[C@@H]1CN(C)Cc1ccc(C(F)(F)F)cc1 | -65.41
C[C@H](CO)N1C[C@H](C)[C@@H](CN(C)Cc2ccccc2F)Oc2cc(C3=CCCCC3)ccc2S1(=O)=O | -74.5
O=C(Nc1ccccc1)N1C[C@@H]2N[C@H](C1)C2c1ccc(-c2ccccc2F)cc1 (stereo partly specified) | -100.6
C[C@@H]1CN([C@H](C)CO)S(=O)(=O)c2ccc(-c3ccncc3)cc2O[C@@H]1CN(C)Cc1ccccc1 | -37.83
O=C(Nc1ccc(F)cc1)N1CCCCN2[C@H](CO)[C@@H](c3ccc(-c4cccc(F)c4)cc3)[C@@H]2C1 | -50.61
Cc1ccc(S(=O)(=O)N(C)C[C@H]2Oc3ccc(NS(=O)(=O)c4ccc(Cl)cc4)cc3CC(=O)N([C@@H](C)CO)C[C@H]2C)cc1 | -27.6
C[C@H]1CN([C@@H](C)CO)S(=O)(=O)c2ccc(C#CC(C)(C)O)cc2O[C@@H]1CN(C)Cc1ccc(F)cc1 | -48.44
CO[C@@H]1CN(C)C(=O)c2cc(NS(=O)(=O)c3cccc(F)c3)ccc2OC[C@@H](C)N(Cc2cc(F)ccc2F)C[C@H]1C | -34.3
C[C@H]1CN([C@@H](C)CO)C(=O)Cc2cc(NC(=O)Cc3ccccc3)ccc2O[C@@H]1CN(C)Cc1ccc(Oc2ccccc2)cc1 | -29.74
CN1c2ccc(-c3cccc(F)c3)cc2[C@H]2[C@H](CCN2C(=O)Cc2ccccc2)[C@H]1CO | -62.82
CS(=O)(=O)Nc1ccc2c(c1)[C@@H]1C[C@@H](CC(=O)NCc3ccc(Oc4ccccc4)cc3)O[C@@H](CO)[C@@H]1O2 | -42.75
C[C@@H]1CCCCO[C@H](CN(C)Cc2ccc(C(F)(F)F)cc2)[C@@H](C)CN([C@@H](C)CO)C(=O)c2cc(NC(=O)Nc3ccc(F)cc3)ccc2O1 | -31.99
C[C@@H]1CN([C@@H](C)CO)C(=O)c2c(c3ccccc3n2C)-c2ccccc2CO[C@@H]1CN(C)CC1CCCCC1 | -39.36
COc1ccc(S(=O)(=O)N(C)C[C@H]2Oc3cc(C#CC4CCCC4)ccc3S(=O)(=O)N([C@@H](C)CO)C[C@@H]2C)cc1 | -60.64
C[C@H]1CN([C@@H](C)CO)S(=O)(=O)c2ccc(-c3ccncc3)cc2O[C@@H]1CN(C)C(=O)Nc1ccc(C(F)(F)F)cc1 | -40.7
COc1ccccc1C#Cc1ccc([C@H]2[C@H](C#N)N(C(=O)C3CC3)[C@H]2CO)cc1 | -29.83
COc1cccc(CN(C)C[C@@H]2OCc3ccccc3-c3c(n(C)c4ccccc34)C(=O)N([C@@H](C)CO)C[C@@H]2C)c1 | -32.46
CC(C)C#Cc1ccc([C@H]2[C@@H](CO)N3CCCCN(C(=O)c4ccc(F)cc4)C[C@H]23)cc1 | -71.83
C[C@H](CO)N1C[C@H](C)[C@H](CN(C)C(=O)C2CC2)Oc2cc(C#Cc3ccccc3)ccc2S1(=O)=O | -40.86
O=C(C1CCOCC1)N1CC(=O)N2[C@H](C1)[C@H](c1ccc(/C=C/c3ccccc3)cc1)[C@@H]2CO | -35.29
O=C(NC1CCCCC1)N1CC2(C1)[C@@H](c1ccccc1)[C@@H](CO)N2CC1CCCC1 | -29.72
Cc1ccccc1-c1ccc2c(c1)O[C@@H](CN(C)Cc1ccncc1)[C@@H](C)CN([C@H](C)CO)S2(=O)=O | -53.77
O=C(NCc1ccccc1)[C@H]1[C@H](CO)[C@H]2Cn3c(ccc(/C=C/c4ccccc4)c3=O)[C@@H]1N2CC1CC1 | -59.89
O=C(c1ccccn1)N1CC(=O)N2[C@H](CO)[C@@H](c3ccc(C#Cc4ccccc4)cc3)[C@@H]2C1 | -37.49
COc1ccc2c3c([nH]c2c1)[C@H](CO)N(C(=O)c1cccnc1)CC31CCN(Cc2ccccc2)CC1 | -34.56
O=C(c1ccc2c(c1)OCO2)N1CC(=O)N2[C@H](CO)[C@H](c3ccc(C#CC4CCCC4)cc3)[C@H]2C1 | -52.18
C[C@@H]1CCCCO[C@@H](CN(C)C(=O)Nc2ccc(C(F)(F)F)cc2)[C@H](C)CN([C@@H](C)CO)C(=O)c2cc(NC(=O)NC3CCCCC3)ccc2O1 | -27.32
COc1ccc(CN(C)C[C@H]2OCCCC[C@@H](C)Oc3ccc(NC(=O)Nc4ccc5c(c4)OCO5)cc3C(=O)N([C@H](C)CO)C[C@H]2C)cc1 | -50.12
C[C@H]1CN([C@@H](C)CO)C(=O)Cc2cc(NC(=O)Nc3ccc4c(c3)OCO4)ccc2O[C@H]1CN(C)Cc1ccc(C(F)(F)F)cc1 | -44.99
C[C@@H]1CN([C@@H](C)CO)C(=O)Cc2cc(NC(=O)Nc3ccccc3)ccc2O[C@@H]1CN(C)Cc1ccc(Cl)c(Cl)c1 | -59.33
COc1ccccc1-c1ccc2c(c1)O[C@@H](CN(C)CC1CCOCC1)[C@H](C)CN([C@H](C)CO)S2(=O)=O | -20.28
Cc1ccc(-c2ccc([C@@H]3[C@H](CO)N4CCCCN(C(=O)c5ccc(F)cc5)C[C@@H]34)cc2)cc1 | -87.14
C[C@@H]1CCCCO[C@@H](CN(C)S(=O)(=O)c2ccc(F)cc2)[C@H](C)CN([C@@H](C)CO)C(=O)c2cc(NC(=O)C3CCCCC3)ccc2O1 | -23.29
COc1ccc(S(=O)(=O)Nc2ccc3c(c2)C(=O)N([C@@H](C)CO)C[C@H](C)[C@H](CN(C)Cc2ccc4c(c2)OCO4)OCCCC[C@H](C)O3)cc1 | -36.58
CC(C)NC(=O)Nc1ccc2c(c1)C(=O)N([C@@H](C)CO)C[C@H](C)[C@@H](CN(C)Cc1ccc(Cl)c(Cl)c1)OCCCC[C@@H](C)O2 | -63

Some entries from above, unchanged:

Compound,activity change (Venus) (%)
C[C@H](CO)N1C[C@H](C)[C@H](CN(C)S(=O)(=O)c2ccc(C#N)cc2)OCc2ccccc2-c2c(n(C)c3ccccc23)C1=O,-46.76
C[C@@H]1CN([C@@H](C)CO)C(=O)c2cc(NC(=O)Nc3ccc(F)cc3)ccc2O[C@@H]1CN(C)Cc1ccc(C(F)(F)F)cc1,-65.41
CCC(=O)N1CC[C@H]2[C@H](CO)Nc3ccc(-c4ccccc4)cc3[C@H]21,-37.07
Cc1ccc(-c2ccc([C@@H]3[C@H](CO)N4CCCCN(C(=O)c5ccc(F)cc5)C[C@@H]34)cc2)cc1,-87.14

From PubChem BioAssay record AID1053133 (Broad Institute, 2014).